Target: T1, rat NTR1 (Rattus norvegicus, UniProt P20789)
T1 construct: expressed in transfected cells; host or cells: CHO-K1
Assay: Competition binding with [3H]NT, membranes of CHO-K1 cells transfected with rat NTR1
Details: read-out: Kd rNTR (Table VII)
Method: CHO-K1 cells were stably transfected with nucleic acid encoding either the human NTR1 or the rat NTR1, and cultured in 150 mm petri plates with 35 mL of Dulbecco-modified Eagle's medium containing 100 μM minimal essential medium nonessential amino acids (GIBCO) supplemented with 5% (v/v) FetalClone II bovine serum product (Hyclone Labs, Logan, Utah). CHO cells (subculture 9–19) were harvested at confluency. Briefly, the medium from each plate was removed by aspiration, and the cells washed with 6 mL of 50 mM Tris-HCl (pH 7.4) and resuspended in 5–10 mL of Tris-HCl by scraping the cells with a rubber spatula. The resuspended cells were placed into a centrifuge tube and collected by centrifugation at 300× g for five minutes at 4° C. in a GPR centrifuge (Beckman Instruments, Fullerton, Calif.). The cellular pellet (in 50 mM Tris-HCl, 1 mM EDTA, pH 7.4) was stored at […] until radioligand binding was performed.
The supernatant was decanted and discarded, and the cellular pellet was resuspended in 2 mL of Tris-HCl, 1 mM EDTA (pH 7.4) followed by homogenization with a Brinkmann Polytron at setting 6 for ten seconds. Centrifugation was repeated as above and the supernatant was decanted and discarded. The resulting final cellular pellet was resuspended in 50 mM Tris-HCl, lmM EDTA, 0.1% bovine serum albumin, and 0.2 mM bacitracin.
Incubation was at 20° C. for 30 minutes. […]

Chains of the proteins cited; added tags and fusions are not shown.
UniProt P20789, whole entry: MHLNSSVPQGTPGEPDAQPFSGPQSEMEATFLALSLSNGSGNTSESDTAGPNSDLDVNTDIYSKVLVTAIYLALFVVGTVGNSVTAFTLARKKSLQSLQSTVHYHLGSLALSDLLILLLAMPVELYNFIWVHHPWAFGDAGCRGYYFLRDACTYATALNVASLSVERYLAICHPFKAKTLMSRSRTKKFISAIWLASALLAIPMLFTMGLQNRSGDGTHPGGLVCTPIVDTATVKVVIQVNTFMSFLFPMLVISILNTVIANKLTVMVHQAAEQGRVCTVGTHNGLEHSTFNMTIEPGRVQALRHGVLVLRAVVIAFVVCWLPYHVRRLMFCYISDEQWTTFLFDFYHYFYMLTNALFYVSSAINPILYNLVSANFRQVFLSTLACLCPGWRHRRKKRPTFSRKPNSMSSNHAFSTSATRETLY

CN1CCN(C2=Nc3cc(Cl)ccc3Nc3ccccc32)CC1 [Clozapine, reference compound]
Kd: > 100 µM

O=C(CCCN1CCC(O)(c2ccc(Cl)cc2)CC1)c1ccc(F)cc1 [Haloperidol, reference compound]
Kd: > 100 µM
